Values from PubChem BioAssay AID1259254 (NCATS, 2017).
This is one part, drawn at random, of about 59,000 reagents. About 1,550 of all reagents (2.6%) count as active. 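G2 share is only a proxy for re-replication; each gene was hit by three separate siRNAs, and active genes were retested.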 The raw values are shown without normalisation. The numbers tell different reagents against one gene apart. Reagent sequences are not shown. Not given: the amount of reagent.

Purpose: 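Genome-wide screen for genes that prevent DNA re-replication in cancer cells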 (primary screen)
Cells: human HCT116 colorectal cancer cells
Reagent: single siRNA against human genes
Duration: 3 days
Measurement: 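Imaged Hoechst DNA stain sorts each cell into a cycle phase by DNA amount; per plate, G2 fraction set to 0% for non-targeting and 100% for GMNN siRNA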
Direction: G2 robust z-score and G2 cells, % of GMNN control: higher = more G2 cells, more excess DNA replication; raw share of cells in G2: higher = larger share of cells with G2 DNA content
Hit rule: 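An siRNA counts as active if its G2 robust z-score lies at least 5 MADs above the screen median; here such calls match roughly 38% of GMNN control or more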

Gene | siRNA no. | G2 robust z-score | G2 cells, % of GMNN control | raw share of cells in G2 (%) | Outcome
ARF6 (ARF GTPase 6) | 1 | -0.204 | 1.53 | 5.62 | inactive
ARF6 (ARF GTPase 6) | 2 | -0.655 | -1.64 | 3.38 | inactive
ARF6 (ARF GTPase 6) | 3 | -0.899 | -3.36 | 3.57 | inactive
TRIM40 (tripartite motif containing 40) | 1 | -0.933 | -3.6 | 3.19 | inactive
TRIM40 (tripartite motif containing 40) | 2 | 1.33 | 12.3 | 9.22 | inactive
TRIM40 (tripartite motif containing 40) | 3 | -0.445 | -0.164 | 5.88 | inactive
METTL21C (methyltransferase 21C, AARS1 lysine) | 1 | -0.757 | -2.36 | 2.76 | inactive
METTL21C (methyltransferase 21C, AARS1 lysine) | 2 | 0.132 | 3.9 | 4.27 | inactive
METTL21C (methyltransferase 21C, AARS1 lysine) | 3 | 0.252 | 4.74 | 4.26 | inactive
DPP7 (dipeptidyl peptidase 7) | 1 | 0.639 | 7.47 | 7.55 | inactive
DPP7 (dipeptidyl peptidase 7) | 2 | -0.386 | 0.254 | 4 | inactive
DPP7 (dipeptidyl peptidase 7) | 3 | 3.66 | 28.7 | 15.6 | inactive
SCN4B (sodium voltage-gated channel beta subunit 4) | 1 | 0.64 | 7.47 | 8.15 | inactive
SCN4B (sodium voltage-gated channel beta subunit 4) | 2 | -1.11 | -4.87 | 2.3 | inactive
SCN4B (sodium voltage-gated channel beta subunit 4) | 3 | -1.02 | -4.22 | 1.83 | inactive
VPS37B (VPS37B subunit of ESCRT-I) | 1 | 0.577 | 7.02 | 7.36 | inactive
VPS37B (VPS37B subunit of ESCRT-I) | 2 | -0.211 | 1.48 | 4.95 | inactive
VPS37B (VPS37B subunit of ESCRT-I) | 3 | 0.731 | 8.11 | 4.59 | inactive
VPS37C (VPS37C subunit of ESCRT-I) | 1 | 4.09 | 31.7 | 16.7 | inactive
VPS37C (VPS37C subunit of ESCRT-I) | 2 | -0.501 | -0.559 | 3.91 | inactive
VPS37C (VPS37C subunit of ESCRT-I) | 3 | -0.851 | -3.02 | 2.17 | inactive
PNPP1 (PNP pseudogene 1) | 1 | -0.724 | -2.13 | 2.37 | inactive
PNPP1 (PNP pseudogene 1) | 2 | -0.354 | 0.474 | 3.96 | inactive
PNPP1 (PNP pseudogene 1) | 3 | -0.527 | -0.74 | 2.95 | inactive
P4HA1 (prolyl 4-hydroxylase subunit alpha 1) | 1 | 0.602 | 7.2 | 7.67 | inactive
P4HA1 (prolyl 4-hydroxylase subunit alpha 1) | 2 | 0.452 | 6.15 | 7.53 | inactive
P4HA1 (prolyl 4-hydroxylase subunit alpha 1) | 3 | -0.0545 | 2.58 | 4.08 | inactive
ITGB1BP1 (integrin subunit beta 1 binding protein 1) | 1 | 0.905 | 9.34 | 9.55 | inactive
ITGB1BP1 (integrin subunit beta 1 binding protein 1) | 2 | 2.15 | 18.1 | 11.5 | inactive
ITGB1BP1 (integrin subunit beta 1 binding protein 1) | 3 | 2.27 | 18.9 | 10.3 | inactive

Part of the list above, reformatted:
Gene,siRNA no.,G2 robust z-score,"G2 cells, % of GMNN control",raw share of cells in G2 (%),Outcome
ARF6 (ARF GTPase 6),3,-0.899,-3.36,3.57,inactive
TRIM40 (tripartite motif containing 40),1,-0.933,-3.6,3.19,inactive
